Article PMC12702018
Results are given in words; binding and its absence hold for the method and conditions named. Binding seen in cells or lysates may run through a third protein. Some entries that bind do so weakly or less than the wild type.

Sequences of proteins named here, by UniProt entry; tags and fusion partners are left off. A change or cut given only in a name is not applied to a line headed by its entry.
UniProt Q5UIP0: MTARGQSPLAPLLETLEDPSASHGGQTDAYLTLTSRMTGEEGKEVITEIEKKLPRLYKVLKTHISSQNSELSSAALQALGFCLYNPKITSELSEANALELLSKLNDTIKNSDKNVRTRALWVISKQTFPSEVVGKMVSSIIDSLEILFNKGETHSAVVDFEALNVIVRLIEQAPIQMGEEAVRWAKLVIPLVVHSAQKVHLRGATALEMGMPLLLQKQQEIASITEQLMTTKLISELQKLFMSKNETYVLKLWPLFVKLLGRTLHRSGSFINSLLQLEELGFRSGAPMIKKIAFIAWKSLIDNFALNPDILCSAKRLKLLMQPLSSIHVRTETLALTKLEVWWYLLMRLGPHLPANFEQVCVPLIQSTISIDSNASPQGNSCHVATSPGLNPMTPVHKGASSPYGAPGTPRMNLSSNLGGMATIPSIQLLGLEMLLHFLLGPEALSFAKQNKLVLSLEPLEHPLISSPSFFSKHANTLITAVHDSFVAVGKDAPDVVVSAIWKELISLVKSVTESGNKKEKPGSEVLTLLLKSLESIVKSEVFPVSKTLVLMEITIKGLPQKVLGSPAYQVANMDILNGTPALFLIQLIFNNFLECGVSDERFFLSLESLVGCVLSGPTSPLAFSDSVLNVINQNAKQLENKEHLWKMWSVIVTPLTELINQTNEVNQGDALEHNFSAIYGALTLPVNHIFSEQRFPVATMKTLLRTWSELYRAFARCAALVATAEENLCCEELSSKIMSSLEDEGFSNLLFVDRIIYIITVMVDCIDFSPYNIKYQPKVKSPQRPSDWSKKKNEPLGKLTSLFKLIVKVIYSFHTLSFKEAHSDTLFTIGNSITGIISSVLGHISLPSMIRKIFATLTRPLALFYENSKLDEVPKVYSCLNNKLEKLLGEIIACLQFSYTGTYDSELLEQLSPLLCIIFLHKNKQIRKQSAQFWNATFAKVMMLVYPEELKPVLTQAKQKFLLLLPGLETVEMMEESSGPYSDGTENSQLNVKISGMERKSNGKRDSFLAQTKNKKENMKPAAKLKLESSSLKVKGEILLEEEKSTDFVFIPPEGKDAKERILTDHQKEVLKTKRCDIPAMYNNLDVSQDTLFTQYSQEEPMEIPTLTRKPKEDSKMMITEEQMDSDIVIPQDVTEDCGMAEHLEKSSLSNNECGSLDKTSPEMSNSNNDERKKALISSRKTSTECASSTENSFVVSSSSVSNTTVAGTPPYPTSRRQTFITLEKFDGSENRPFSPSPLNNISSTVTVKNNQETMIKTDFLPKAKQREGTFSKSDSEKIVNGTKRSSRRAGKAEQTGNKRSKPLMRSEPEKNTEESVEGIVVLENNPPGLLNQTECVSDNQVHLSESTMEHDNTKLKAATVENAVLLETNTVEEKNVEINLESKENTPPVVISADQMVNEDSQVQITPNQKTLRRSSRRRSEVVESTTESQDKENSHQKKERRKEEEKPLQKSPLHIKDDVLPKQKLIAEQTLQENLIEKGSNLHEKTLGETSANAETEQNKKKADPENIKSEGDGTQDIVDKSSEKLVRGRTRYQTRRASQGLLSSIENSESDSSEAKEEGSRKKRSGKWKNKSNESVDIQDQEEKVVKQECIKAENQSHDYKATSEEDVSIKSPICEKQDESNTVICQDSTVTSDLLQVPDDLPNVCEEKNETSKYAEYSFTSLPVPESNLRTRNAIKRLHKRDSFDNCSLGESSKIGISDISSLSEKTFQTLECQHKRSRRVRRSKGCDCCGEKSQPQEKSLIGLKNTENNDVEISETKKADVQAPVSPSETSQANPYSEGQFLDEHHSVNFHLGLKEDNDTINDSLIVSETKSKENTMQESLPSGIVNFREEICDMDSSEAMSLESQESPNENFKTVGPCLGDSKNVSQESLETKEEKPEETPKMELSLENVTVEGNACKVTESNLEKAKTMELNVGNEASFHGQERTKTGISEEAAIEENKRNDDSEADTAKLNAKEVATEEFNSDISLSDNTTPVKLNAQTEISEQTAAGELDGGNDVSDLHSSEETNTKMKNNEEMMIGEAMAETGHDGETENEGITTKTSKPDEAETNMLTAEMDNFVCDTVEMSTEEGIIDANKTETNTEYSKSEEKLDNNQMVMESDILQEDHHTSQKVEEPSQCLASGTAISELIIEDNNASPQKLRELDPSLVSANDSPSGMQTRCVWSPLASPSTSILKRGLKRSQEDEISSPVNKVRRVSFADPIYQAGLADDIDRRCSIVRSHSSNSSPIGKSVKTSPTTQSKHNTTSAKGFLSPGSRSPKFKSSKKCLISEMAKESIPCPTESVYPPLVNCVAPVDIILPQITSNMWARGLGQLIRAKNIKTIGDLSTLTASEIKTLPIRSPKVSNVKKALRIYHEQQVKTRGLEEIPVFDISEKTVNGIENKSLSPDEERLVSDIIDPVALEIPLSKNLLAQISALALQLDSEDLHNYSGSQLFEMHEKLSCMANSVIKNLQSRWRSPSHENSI
UniProt Q14676: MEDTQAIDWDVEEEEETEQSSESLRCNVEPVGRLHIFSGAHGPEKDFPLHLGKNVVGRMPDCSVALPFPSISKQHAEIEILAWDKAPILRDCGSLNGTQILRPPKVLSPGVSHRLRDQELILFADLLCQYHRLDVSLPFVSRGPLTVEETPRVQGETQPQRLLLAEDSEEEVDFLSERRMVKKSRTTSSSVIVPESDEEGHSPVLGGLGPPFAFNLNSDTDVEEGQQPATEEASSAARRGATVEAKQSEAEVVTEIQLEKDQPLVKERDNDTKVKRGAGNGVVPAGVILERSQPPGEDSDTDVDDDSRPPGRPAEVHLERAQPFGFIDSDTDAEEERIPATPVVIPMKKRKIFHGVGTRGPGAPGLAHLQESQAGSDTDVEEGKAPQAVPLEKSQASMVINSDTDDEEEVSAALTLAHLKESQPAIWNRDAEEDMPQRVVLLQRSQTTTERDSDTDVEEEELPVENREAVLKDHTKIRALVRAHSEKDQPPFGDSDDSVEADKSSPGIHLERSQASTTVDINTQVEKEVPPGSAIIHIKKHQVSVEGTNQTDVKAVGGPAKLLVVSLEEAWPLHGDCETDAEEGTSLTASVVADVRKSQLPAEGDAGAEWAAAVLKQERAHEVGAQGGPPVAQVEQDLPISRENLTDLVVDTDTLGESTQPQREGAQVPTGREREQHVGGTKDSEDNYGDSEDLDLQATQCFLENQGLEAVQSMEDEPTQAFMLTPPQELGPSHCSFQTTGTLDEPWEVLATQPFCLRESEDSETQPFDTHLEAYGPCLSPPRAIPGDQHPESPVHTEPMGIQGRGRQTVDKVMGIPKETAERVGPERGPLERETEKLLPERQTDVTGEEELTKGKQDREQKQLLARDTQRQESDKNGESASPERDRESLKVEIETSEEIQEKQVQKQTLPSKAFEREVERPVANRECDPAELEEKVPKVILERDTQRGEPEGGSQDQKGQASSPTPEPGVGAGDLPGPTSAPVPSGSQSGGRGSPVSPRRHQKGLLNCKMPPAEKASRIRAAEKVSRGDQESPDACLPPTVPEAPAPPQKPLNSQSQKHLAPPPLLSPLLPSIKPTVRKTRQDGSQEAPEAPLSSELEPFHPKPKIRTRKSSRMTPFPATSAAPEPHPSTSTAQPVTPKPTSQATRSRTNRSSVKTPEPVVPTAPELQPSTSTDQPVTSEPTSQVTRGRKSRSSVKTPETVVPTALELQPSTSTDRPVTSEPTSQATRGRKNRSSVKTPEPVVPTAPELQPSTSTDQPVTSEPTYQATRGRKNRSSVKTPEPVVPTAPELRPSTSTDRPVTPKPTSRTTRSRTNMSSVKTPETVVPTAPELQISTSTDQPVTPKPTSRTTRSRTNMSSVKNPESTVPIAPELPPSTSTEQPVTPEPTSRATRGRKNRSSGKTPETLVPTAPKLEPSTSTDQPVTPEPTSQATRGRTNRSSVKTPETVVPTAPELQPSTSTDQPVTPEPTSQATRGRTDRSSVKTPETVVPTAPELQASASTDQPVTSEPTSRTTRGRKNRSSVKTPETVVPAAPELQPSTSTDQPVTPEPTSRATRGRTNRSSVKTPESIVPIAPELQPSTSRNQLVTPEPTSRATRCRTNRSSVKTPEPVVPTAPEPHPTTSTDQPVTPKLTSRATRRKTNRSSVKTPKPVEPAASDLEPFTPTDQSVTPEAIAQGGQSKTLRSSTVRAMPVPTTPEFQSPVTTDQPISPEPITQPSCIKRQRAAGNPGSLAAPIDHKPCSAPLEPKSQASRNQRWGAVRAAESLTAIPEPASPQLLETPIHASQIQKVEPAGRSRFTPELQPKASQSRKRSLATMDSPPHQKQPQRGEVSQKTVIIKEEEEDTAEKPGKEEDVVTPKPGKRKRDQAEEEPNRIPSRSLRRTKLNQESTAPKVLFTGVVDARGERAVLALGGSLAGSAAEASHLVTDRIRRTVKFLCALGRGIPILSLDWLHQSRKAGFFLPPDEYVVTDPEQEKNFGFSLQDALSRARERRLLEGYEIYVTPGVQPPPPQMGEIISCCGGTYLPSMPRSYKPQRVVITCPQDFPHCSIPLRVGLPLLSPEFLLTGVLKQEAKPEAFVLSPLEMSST

Legend:
[1] = biological target: GFP-RIF1-S (GFP-tagged full-length RIF1-Short, RAP1 interacting factor 1) (human) (UniProt Q5UIP0); assay: proximity ligation; Duolink PLA with GFP and MDC1 antibodies in RIF1^−/− U-2 OS cells expressing GFP, GFP-RIF1-L or GFP-RIF1-S; mock irradiated or 10 Gy IR and 2 h recovery; pre-extracted 8 min with CSK buffer (100 mM NaCl, 0.5% Triton X-100) before fixation
[2] = biological target: GFP-RIF1-L (GFP-tagged full-length RIF1-Long, RAP1 interacting factor 1) (human) (UniProt Q5UIP0); assay: as above

Question: For “mediator of DNA damage checkpoint 1 (MDC1) (from UniProt Q14676 1-2089)”, which binding [1] is on record?
Answer: binds

Question: What about the binding [2] of the same substance?
Answer: binds
